The record followed here is article PMC12401969, “The gut microbiota protein BOC1 exhibits immune checkpoint inhibitor-like activity by inhibiting myeloid-derived suppressor cell differentiation” (Frontiers in Immunology, 2025).

These are yes or no findings as the source states them, for the method shown. A result given as binding can be weak or reduced; the word gives no strength.

Experiment [1] has as its target T1, biotinylated CD200R1 (UniProt Q8TD46 29-265, biotin (site not stated)).
T1 construct: CD200R1 (CD200 receptor 1), soluble biotinylated protein; Held on streptavidin Donor beads in the AlphaLISA; also called CD200R1-(biot)
T1 sequence (looked up): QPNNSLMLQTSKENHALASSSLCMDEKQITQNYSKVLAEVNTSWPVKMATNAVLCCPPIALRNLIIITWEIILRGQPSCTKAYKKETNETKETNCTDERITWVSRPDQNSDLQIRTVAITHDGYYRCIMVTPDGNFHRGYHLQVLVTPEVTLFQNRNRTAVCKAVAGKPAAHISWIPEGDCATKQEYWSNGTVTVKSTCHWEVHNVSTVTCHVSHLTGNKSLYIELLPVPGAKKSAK
The experiment is described as follows: AlphaScreen or HTRF; AlphaLISA competition; 0.3 nM CD200R1-(biot) and 3 nM CD200-His, or the CD200R1-(biot)/BOC1-His complex, with a dose response of CD200-Fc (0.1 to 100 nM), 1 h at room temperature; read as % dissociation of the complex; both purified. In general terms: Bead proximity is the source of the signal in Alpha formats.

For experiment [2], the target named is T1, biotinylated CD200R1. Put plainly: AlphaScreen or HTRF; AlphaLISA screen in 384-well plates, 20 µL; 0.3 nM biotinylated CD200R1 (streptavidin Donor beads) with His-tagged cell-free library proteins at one dilution (1/25; anti-6His Acceptor beads); ImmunoAssay buffer, room temperature; positive = signal 3-fold above the mean of the plates, confirmed with a new synthesis batch; only the target purified.

The target of experiment [3] is T1, biotinylated CD200R1. The experiment is described as follows: AlphaScreen or HTRF; AlphaLISA; 0.3 nM CD200R1-(biot) incubated with 3 nM CD200-Fc, dose response (0.1 to 100 nM) of BOC1-His; signal from CD200R1-(biot) with BOC1-His; both purified.
For experiment [4], the target named is T1, biotinylated CD200R1. The experiment is described as follows: AlphaScreen or HTRF; AlphaLISA; CD200R1-(biot)/CD200-His or CD200R1-(biot)/BOC1-His complex (each protein at 3 nM) with an anti-CD200R1 antibody (30 nM); read as remaining activity and % inhibition; both purified.

Take “BOC1-His (Bacteroides genus (human gut microbiota))”: the binding result in the experiment with biotinylated CD200R1 [1], in the experiment with biotinylated CD200R1 [2], with biotinylated CD200R1 [3] and in the experiment with biotinylated CD200R1 [4] was “binds” throughout.
In the case of BOC5, in the experiment with biotinylated CD200R1 [2], the binding entry is given as “binds”.
